Paper PMC4666396
Results are given in words; binding and its absence hold for the method and conditions named. Binding seen in cells or lysates may run through a third protein. Here binding means that the protein was enriched with, or labelled near, the bait; the list need not be complete.

T1: Splicing factor 1 (SF1) (human (endogenous in HeLa)) (UniProt Q15637)
T1 sequence: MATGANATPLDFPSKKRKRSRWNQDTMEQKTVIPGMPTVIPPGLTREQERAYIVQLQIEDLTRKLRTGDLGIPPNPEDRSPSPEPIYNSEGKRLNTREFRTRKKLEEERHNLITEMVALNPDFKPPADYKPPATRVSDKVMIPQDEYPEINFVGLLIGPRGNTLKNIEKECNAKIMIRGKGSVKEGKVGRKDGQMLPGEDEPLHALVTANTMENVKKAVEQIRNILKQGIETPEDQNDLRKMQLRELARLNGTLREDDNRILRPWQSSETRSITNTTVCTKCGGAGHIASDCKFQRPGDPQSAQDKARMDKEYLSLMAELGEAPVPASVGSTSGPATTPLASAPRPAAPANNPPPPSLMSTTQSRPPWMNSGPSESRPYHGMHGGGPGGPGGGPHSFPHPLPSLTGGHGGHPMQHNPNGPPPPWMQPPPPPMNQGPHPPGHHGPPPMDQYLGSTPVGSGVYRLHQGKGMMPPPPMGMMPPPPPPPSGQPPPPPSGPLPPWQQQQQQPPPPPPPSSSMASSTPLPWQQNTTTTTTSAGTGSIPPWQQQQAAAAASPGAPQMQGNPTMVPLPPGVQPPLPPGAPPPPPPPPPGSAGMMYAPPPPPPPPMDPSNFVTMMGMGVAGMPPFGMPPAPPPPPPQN

T2: Splicing factor 1 (SF1) (human (endogenous in HeLa)), Q15637
T2 chain: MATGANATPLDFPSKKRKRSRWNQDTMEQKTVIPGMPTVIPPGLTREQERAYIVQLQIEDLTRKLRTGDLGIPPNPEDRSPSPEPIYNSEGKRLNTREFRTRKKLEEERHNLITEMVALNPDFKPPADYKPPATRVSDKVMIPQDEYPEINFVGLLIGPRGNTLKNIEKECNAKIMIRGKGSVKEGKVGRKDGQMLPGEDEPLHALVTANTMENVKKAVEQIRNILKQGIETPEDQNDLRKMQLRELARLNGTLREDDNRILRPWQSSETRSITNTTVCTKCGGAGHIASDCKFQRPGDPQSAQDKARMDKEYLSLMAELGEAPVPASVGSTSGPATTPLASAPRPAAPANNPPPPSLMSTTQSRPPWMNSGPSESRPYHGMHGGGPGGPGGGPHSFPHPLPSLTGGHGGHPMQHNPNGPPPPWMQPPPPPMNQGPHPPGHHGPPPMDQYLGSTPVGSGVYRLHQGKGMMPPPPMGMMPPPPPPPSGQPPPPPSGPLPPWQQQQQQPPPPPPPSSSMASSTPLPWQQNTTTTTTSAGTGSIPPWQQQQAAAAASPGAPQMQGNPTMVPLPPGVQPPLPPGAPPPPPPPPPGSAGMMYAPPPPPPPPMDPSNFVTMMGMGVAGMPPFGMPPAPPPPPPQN

B1: ZC3H18 (protein, UniProt Q86VM9 1-953)
chain: MDVAESPERDPHSPEDEEQPQGLSDDDILRDSGSDQDLDGAGVRASDLEDEESAARGPSQEEEDNHSDEEDRASEPKSQDQDSEVNELSRGPTSSPCEEEGDEGEEDRTSDLRDEASSVTRELDEHELDYDEEVPEEPAPAVQEDEAEKAGAEDDEEKGEGTPREEGKAGVQSVGEKESLEAAKEKKKEDDDGEIDDGEIDDDDLEEGEVKDPSDRKVRPRPTCRFFMKGNCTWGMNCRFIHPGVNDKGNYSLITKADPFPPNGAPPLGPHPLMPANPWGGPVVDEILPPPPPEPPTESAWERGLRHAKEVLKKATIRKEQEPDFEEKRFTVTIGEDEREFDKENEVFRDWNSRIPRDVRDTVLEPYADPYYDYEIERFWRGGQYENFRVQYTETEPYHNYRERERERERENRQRERERERERDRERERRQRERERERERERDKERQRRKEEWERERAKRDEKDRQHRDRDREKEREKEKGKPKPRSPQPPSRQAEPPKKEAATTGPQVKRADEWKDPWRRSKSPKKKLGVSVSPSRARRRRKTSASSASASNSSRSSSRSSSYSGSGSSRSRSRSSSYSSYSSRSSRHSSFSGSRSRSRSFSSSPSPSPTPSPHRPSIRTKGEPAPPPGKAGEKSVKKPAPPPAPPQATKTTAPVPEPTKPGDPREARRKERPARTPPRRRTLSGSGSGSGSSYSGSSSRSRSLSVSSVSSVSSATSSSSSAHSVDSEDMYADLASPVSSASSRSPAPAQTRKEKGKSKKEDGVKEEKRKRDSSTQPPKSAKPPAGGKSSQQPSTPQQAPPGQPQQGTFVAHKEIKLTLLNKAADKGSRKRYEPSDKDRQSPPPAKRPNTSPDRGSRDRKSGGRLGSPKPERQRGQNSKAPAAPADRKRQLSPQSKSSSKVTSVPGKASDPGAASTKSGKASTLSRREELLKQLKAVEDAIARKRAKIPGKA
B2: ARS2B (protein, UniProt Q9BXP5 1-876)
chain: MGDSDDEYDRRRRDKFRRERSDYDRSRERDERRRGDDWNDREWDRGRERRSRGEYRDYDRNRRERFSPPRHELSPPQKRMRRDWDEHSSDPYHSGYEMPYAGGGGGPTYGPPQPWGHPDVHIMQHHVLPIQARLGSIAEIDLGVPPPVMKTFKEFLLSLDDSVDETEAVKRYNDYKLDFRRQQMQDFFLAHKDEEWFRSKYHPDEVGKRRQEARGALQNRLRVFLSLMETGWFDNLLLDIDKADAIVKMLDAAVIKMEGGTENDLRILEQEEEEEQAGKPGEPSKKEEGRAGAGLGDGERKTNDKDEKKEDGKQAENDSSNDDKTKKSEGDGDKEEKKEDSEKEAKKSSKKRNRKHSGDDSFDEGSVSESESESESGQAEEEKEEAEEALKEKEKPKEEEWEKPKDAAGLECKPRPLHKTCSLFMRNIAPNISRAEIISLCKRYPGFMRVALSEPQPERRFFRRGWVTFDRSVNIKEICWNLQNIRLRECELSPGVNRDLTRRVRNINGITQHKQIVRNDIKLAAKLIHTLDDRTQLWASEPGTPPLPTSLPSQNPILKNITDYLIEEVSAEEEELLGSSGGAPPEEPPKEGNPAEINVERDEKLIKVLDKLLLYLRIVHSLDYYNTCEYPNEDEMPNRCGIIHVRGPMPPNRISHGEVLEWQKTFEEKLTPLLSVRESLSEEEAQKMGRKDPEQEVEKFVTSNTQELGKDKWLCPLSGKKFKGPEFVRKHIFNKHAEKIEEVKKEVAFFNNFLTDAKRPALPEIKPAQPPGPAQILPPGLTPGLPYPHQTPQGLMPYGQPRPPILGYGAGAVRPAVPTGGPPYPHAPYGAGRGNYDAFRGQGGYPGKPRNRMVRGDPRAIVEYRDLDAPDDVDFF
B3: ZNF598 (protein, UniProt Q86UK7 1-904)
chain: MAAAGGAEGRRAALEAAAAAAPERGGGSCVLCCGDLEATALGRCDHPVCYRCSTKMRVLCEQRYCAVCREELRQVVFGKKLPAFATIPIHQLQHEKKYDIYFADGKVYALYRQLLQHECPRCPELPPFSLFGDLEQHMRRQHELFCCRLCLQHLQIFTYERKWYSRKDLARHRMQGDPDDTSHRGHPLCKFCDERYLDNDELLKHLRRDHYFCHFCDSDGAQDYYSDYAYLREHFREKHFLCEEGRCSTEQFTHAFRTEIDLKAHRTACHSRSRAEARQNRHIDLQFSYAPRHSRRNEGVVGGEDYEEVDRYSRQGRVARAGTRGAQQSRRGSWRYKREEEDREVAAAVRASVAAQQQEEARRSEDQEEGGRPKKEEAAARGPEDPRGPRRSPRTQGEGPGPKETSTNGPVSQEAFSVTGPAAPGCVGVPGALPPPSPKLKDEDFPSLSASTSSSCSTAATPGPVGLALPYAIPARGRSAFQEEDFPALVSSVPKPGTAPTSLVSAWNSSSSSKKVAQPPLSAQATGSGQPTRKAGKGSRGGRKGGPPFTQEEEEDGGPALQELLSTRPTGSVSSTLGLASIQPSKVGKKKKVGSEKPGTTLPQPPPATCPPGALQAPEAPASRAEGPVAVVVNGHTEGPAPARSAPKEPPGLPRPLGSFPCPTPQEDFPALGGPCPPRMPPPPGFSAVVLLKGTPPPPPPGLVPPISKPPPGFSGLLPSPHPACVPSPATTTTTKAPRLLPAPRAYLVPENFRERNLQLIQSIRDFLQSDEARFSEFKSHSGEFRQGLISAAQYYKSCRDLLGENFQKVFNELLVLLPDTAKQQELLSAHTDFCNREKPLSTKSKKNKKSAWQATTQQAGLDCRVCPTCQQVLAHGDASSHQALHAARDDDFPSLQAIARIIT
B4: ANXA6 (protein, UniProt P08133 1-673)
chain: MAKPAQGAKYRGSIHDFPGFDPNQDAEALYTAMKGFGSDKEAILDIITSRSNRQRQEVCQSYKSLYGKDLIADLKYELTGKFERLIVGLMRPPAYCDAKEIKDAISGIGTDEKCLIEILASRTNEQMHQLVAAYKDAYERDLEADIIGDTSGHFQKMLVVLLQGTREEDDVVSEDLVQQDVQDLYEAGELKWGTDEAQFIYILGNRSKQHLRLVFDEYLKTTGKPIEASIRGELSGDFEKLMLAVVKCIRSTPEYFAERLFKAMKGLGTRDNTLIRIMVSRSELDMLDIREIFRTKYEKSLYSMIKNDTSGEYKKTLLKLSGGDDDAAGQFFPEAAQVAYQMWELSAVARVELKGTVRPANDFNPDADAKALRKAMKGLGTDEDTIIDIITHRSNVQRQQIRQTFKSHFGRDLMTDLKSEISGDLARLILGLMMPPAHYDAKQLKKAMEGAGTDEKALIEILATRTNAEIRAINEAYKEDYHKSLEDALSSDTSGHFRRILISLATGHREEGGENLDQAREDAQVAAEILEIADTPSGDKTSLETRFMTILCTRSYPHLRRVFQEFIKMTNYDVEHTIKKEMSGDVRDAFVAIVQSVKNKPLFFADKLYKSMKGAGTDEKTLTRIMVSRSEIDLLNIRREFIEKYDKSLHQAIEGDTSGDFLKALLALCGGED
B5: PCNP (protein, UniProt Q8WW12 1-178)
chain: MADGKAGDEKPEKSQRAGAAGGPEEEAEKPVKTKTVSSSNGGESSSRSAEKRSAEEEAADLPTKPTKISKFGFAIGSQTTKKASAISIKLGSSKPKETVPTLAPKTLSVAAAFNEDEDSEPEEMPPEAKMRMKNIGRDTPTSAGPNSFNKGKHGFSDNQKLWERNIKSHLGNVHDQDN
B6: SPF45, Q96I25 1-401 (protein)
chain: MSLYDDLGVETSDSKTEGWSKNFKLLQSQLQVKKAALTQAKSQRTKQSTVLAPVIDLKRGGSSDDRQIVDTPPHVAAGLKDPVPSGFSAGEVLIPLADEYDPMFPNDYEKVVKRQREERQRQRELERQKEIEEREKRRKDRHEASGFARRPDPDSDEDEDYERERRKRSMGGAAIAPPTSLVEKDKELPRDFPYEEDSRPRSQSSKAAIPPPVYEEQDRPRSPTGPSNSFLANMGGTVAHKIMQKYGFREGQGLGKHEQGLSTALSVEKTSKRGGKIIVGDATEKDASKKSDSNPLTEILKCPTKVVLLRNMVGAGEVDEDLEVETKEECEKYGKVGKCVIFEIPGAPDDEAVRIFLEFERVESAIKAVVDLNGRYFGGRVVKACFYNLDKFRVLDLAEQV

What follows are binders tested against T1, Splicing factor 1 (SF1) (human (endogenous in HeLa)) (assay: affinity purification with mass spectrometry; anti-SF1 on Protein G Sepharose; HeLa cell nuclear extract without or with 0.3 mg/ml RNase A; IP buffer 50 mM Tris-HCl pH 7.9, 100 mM NaCl, 0.05% NP-40, 0.5 mM DTT, 1 h 4°C; 1D PAGE, LC-MSMS; control mouse IgG). Settings: not given.

binding, binds:
B1
B2
B3
B4
B5

Molecular target: T2, Splicing factor 1 (SF1) (human …)
Test: as above
Settings: remark: other sources report otherwise

binding, binds:
B6
